Experimental data: patent US20030087942A1, “Method for the treatment and prevention of cachexia” (Washington University, priority 2001, published 2003)

Key:
[1] = fasted for 16 h following LPS administration
LPS-induced weight loss = type: in vivo, mice (C3H/HeN)
Description: (§1) Animal housing. […] For pharmacological inhibitor studies, male C3H/HeN mice (Harlan Sprague Dawley, Inc., Indianapolis, Ind.) 10-12 wks of age were evaluated according to the method of Gross et al., Am J Physiol 278: R1415-23, 2000. See also Silver et al., J Clin Invest 95: 725-31, 1995. […] Control mice designated “WT” for the COX KO experiments were WT and heterozygous littermates arising from the COX-2 heterozygous matings. All mouse protocols were in accordance with NIH guidelines and approved by the Animal Care and Use Committee of Washington University School of Medicine.

[2] = without LPS; gavage; indomethacin 150 μg/dose, Compound 1 and Compound 2 300 μg/dose (10 mg/kg)
Description: as §1

corticosterone = details: 3 h and 16 h after LPS
[3] = 24 h period following LPS; 300 μg/dose (10 mg/kg) gavage

| Structure (SMILES) | weight loss vs. vehicle, mice fasted after LPS [1] | weight loss associated with LPS administration, vs. vehicle/LPS (LPS-induced weight loss; 100 μg LPS i.p., gavage 30 min before, 8 and 24 h after LPS, indomethacin 150 μg/dose, Compound 1 300 μg/dose) | weight loss relative to the vehicle/LPS and Compound 2/LPS groups (LPS-induced weight loss; one day after LPS treatment, 300 μg/dose (10 mg/kg) gavage) | change in body weight relative to vehicle-treated control mice [2] | magnitude or duration of adrenal activation (plasma corticosterone) vs. LPS alone (corticosterone) | increase of food intake in comparison to mice receiving LPS alone [3] |
| --- | --- | --- | --- | --- | --- | --- |
| NS(=O)(=O)c1ccc(-n2nc(C(F)(F)F)cc2-c2ccc(Cl)cc2)cc1 [Compound 1] | identical weight loss | significantly attenuated weight loss | approximately 50% | no change in body weight | no difference | 50% |
| COc1ccc(-n2nc(C(F)(F)F)cc2-c2ccc(Cl)cc2)cc1 [Compound 2, reference compound] |  |  |  | no change in body weight |  |  |
